The source of these data is publication PMC11968394, “The effect of deuterated PLK1 inhibitor on its safety and efficacy in vivo” (Frontiers in Oncology, 2025).

The data set can be described thus: Caco-2 permeability assay. The class given is in vitro ADME. To be noted: human. The protocol:
Caco-2 cells were cultured in 10% FBS DMEM for 14-21 days before assays. […] HBSS was added to the opposite chamber. After 2 hours incubation at 37°C, samples were analyzed by LC-MS/MS. Fluorescein leakage was tested by adding 100 μM fluorescein to the upper chamber and measuring fluorescence after 30 minutes.
(Passage across Caco-2 layers is used to estimate intestinal permeability.)

As to `C[C@H]1O[C@@H](O[C@H]2[C@@H](O)C[C@H](O[C@H]3[C@@H](O)C[C@H](O[C@H]4CC[C@@]5(C)[C@H](CC[C@@H]6[C@@H]5C[C@@H](O)[C@]5(C)[C@@H](C7=CC(=O)OC7)CC[C@]65O)C4)O[C@@H]3C)O[C@@H]2C)C[C@H](O)[C@@H]1O` [Digoxin], the efflux ratio at 2 h, 5 μM was determined as 27.8.

A word on the efflux ratio: it is a quotient of directional permeabilities that is used to spot active efflux.
